No constants are given. Whether binding was seen depends on the method and setting. Binding seen in cells or lysates may run through a third protein. A yes stands for co-enrichment or nearness to the bait. Other partners may have been found. No binding means not detected with the bait.

The chains behind the UniProt entries cited, without tags or fusion partners. Where a name states a change or a piece, a line headed by the entry shows the natural chain unless it says otherwise.
UniProt O15350, whole entry, looked up, stated change not applied: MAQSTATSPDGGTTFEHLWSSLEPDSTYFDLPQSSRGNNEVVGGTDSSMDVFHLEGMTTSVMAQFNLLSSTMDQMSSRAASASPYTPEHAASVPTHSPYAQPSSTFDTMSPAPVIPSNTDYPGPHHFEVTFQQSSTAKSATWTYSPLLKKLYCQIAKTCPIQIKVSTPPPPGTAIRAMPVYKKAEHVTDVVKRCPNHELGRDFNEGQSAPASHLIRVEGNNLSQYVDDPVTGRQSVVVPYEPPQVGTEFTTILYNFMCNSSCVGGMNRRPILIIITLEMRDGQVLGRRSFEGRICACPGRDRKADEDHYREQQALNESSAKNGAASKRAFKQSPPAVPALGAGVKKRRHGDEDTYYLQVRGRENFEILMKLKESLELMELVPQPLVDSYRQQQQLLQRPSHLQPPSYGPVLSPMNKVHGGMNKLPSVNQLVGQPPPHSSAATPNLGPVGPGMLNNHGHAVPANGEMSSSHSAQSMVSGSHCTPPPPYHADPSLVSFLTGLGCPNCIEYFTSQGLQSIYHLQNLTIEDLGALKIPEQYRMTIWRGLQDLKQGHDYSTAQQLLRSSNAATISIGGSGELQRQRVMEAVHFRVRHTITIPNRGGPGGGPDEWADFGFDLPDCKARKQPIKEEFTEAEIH

For the assay, the target named is T1, ΔNp73α-TAP (UniProt O15350).
T1 sequence: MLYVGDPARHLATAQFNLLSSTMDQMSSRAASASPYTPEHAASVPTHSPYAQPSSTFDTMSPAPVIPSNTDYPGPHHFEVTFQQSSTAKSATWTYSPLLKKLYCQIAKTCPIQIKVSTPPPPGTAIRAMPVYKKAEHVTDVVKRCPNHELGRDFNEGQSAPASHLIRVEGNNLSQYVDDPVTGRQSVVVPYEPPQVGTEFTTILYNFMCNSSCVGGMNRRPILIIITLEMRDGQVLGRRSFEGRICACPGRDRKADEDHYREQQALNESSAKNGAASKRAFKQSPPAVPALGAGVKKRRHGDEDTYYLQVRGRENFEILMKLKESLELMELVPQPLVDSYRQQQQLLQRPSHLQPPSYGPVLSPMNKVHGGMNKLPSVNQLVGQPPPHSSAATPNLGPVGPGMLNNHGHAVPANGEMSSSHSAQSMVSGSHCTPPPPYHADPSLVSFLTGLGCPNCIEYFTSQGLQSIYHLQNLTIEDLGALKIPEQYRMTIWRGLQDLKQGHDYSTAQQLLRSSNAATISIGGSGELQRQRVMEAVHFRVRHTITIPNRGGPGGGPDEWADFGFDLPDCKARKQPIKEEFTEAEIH
The assay can be described thus: affinity purification with mass spectrometry.

For the substance “HPV38 E6 oncoprotein in 38HK (human papillomavirus type 38)”, the binding entry is “no binding”.
Turning to “HPV38 E7 oncoprotein in 38HK (human papillomavirus type 38)”, the binding entry was “no binding”.

(Values after publication doi:10.1101/2022.10.27.514150.)
